The nature of the data set: peptide synthesis.

Drawing on patent US8821850B2 (Mersana Therapeutics, Inc., priority 2011, dated 2014), this text covers conjugation yield and step yield for two substances.

For LTVSPNY-Adoa-PEG12-Thioester, for the setting “conjugation step”, the conjugation yield was 51% yield.
On to AF HPA-Boc-L-Alanine, for which the step yield (late stage modification step) worked out at 75% yield.
